# Test results taken from PubChem BioAssay AID330 (DTP/NCI, 2004).
# The list shows only some results of the screen, not a fair sample: it gathers tests that were run many times, whatever their T/C, doses with no T/C, and many T/C values between a quarter and a half above the control. Further doses and runs are listed elsewhere. T/C is the treated group as % of the vehicle group. Some doses have a count of surviving animals in place of a T/C: the source files T/C as zero there, which appears to mark a toxic dose or a test without result, not a measured value. Some survivor counts are full or nearly so, which does not show that the dose was tolerated: survival well below the control is almost never listed, so the zero probably covers shortened survival too. Survivors were counted at the toxicity check, usually on the fifth day, unless a day is given; later deaths do not show. Schedules are NCI's codes, taken here to give the interval after Q, in days (D) or hours (H), and the number of doses after X. Some entries hold several experiments; their values stand side by side, smallest first. For survival time, the PubChem record calls one and a half times the control and up active, and a quarter to a half above the control has no call in these data; cut-offs in other NCI protocols can differ. Some T/C values are followed by the survivors on the day toxicity was checked, most often the fifth; without a count, all were alive then.
# Tested on: P388 leukemia ip, CD2F1 mice, survival T/C
# Assay: NCI In Vivo Anticancer Drug Screen. Data for tumor model P388 Leukemia (intraperitoneal) in CD2F1 (CDF1) mice
# Conditions: T/C endpoint: median survival time, higher T/C = longer survival
# [1] = dose: 400.0 mg/kg/injection, schedule: Q04DX002 (ip), vehicle: Klucel (hydroxypropylcellulose) (HPC)
# [2] = dose: 200.0 mg/kg/injection, schedule: Q01DX005 (ip), vehicle: saline
# [3] = dose: 200.0 mg/kg/injection, schedule: Q04DX002 (ip), vehicle: Klucel (hydroxypropylcellulose) (HPC)
# [4] = dose: 200.0 mg/kg/injection, schedule: Q01DX009 (ip), vehicle: saline
# [5] = dose: 240.0 mg/kg/injection, schedule: Q01DX005 (ip), vehicle: saline
# [6] = dose: 200.0 mg/kg/injection, schedule: Q01DX005 (ip), vehicle: saline with Tween-80
# [7] = dose: 400.0 mg/kg/injection, schedule: Q01DX005 (ip), vehicle: saline with Tween-80
# [8] = dose: 200.0 mg/kg/injection, schedule: Q01DX009 (ip), vehicle: saline with Tween-80
# [9] = dose: 240.0 mg/kg/injection, schedule: Q01DX005 (ip), vehicle: saline with Tween-80
# [10] = dose: 50.0 mg/kg/injection, schedule: Q01DX009 (ip), vehicle: saline
# [11] = dose: 100.0 mg/kg/injection, schedule: Q01DX009 (ip), vehicle: saline
# [12] = dose: 400.0 mg/kg/injection, schedule: Q01DX001 (ip), vehicle: Klucel (hydroxypropylcellulose) (HPC)
# [13] = dose: 100.0 mg/kg/injection, schedule: Q01DX005 (ip), vehicle: Klucel (hydroxypropylcellulose) (HPC)
# [14] = dose: 200.0 mg/kg/injection, schedule: Q01DX005 (ip), vehicle: Klucel (hydroxypropylcellulose) (HPC)
compound,measurement,setting,value
OP12(OC(C(F)(F)F)(C(F)(F)F)c3ccccc31)OC(C(F)(F)F)(C(F)(F)F)c1ccccc12,survivor count,[1],4 of 6
CCC(C)N(CC)CCNc1cc(OC)cc2cccnc12 (stereo not given),survivor count,[2],0 of 5
CCC(=O)Nc1ccc(N=NN(C)C)cc1,survivor count,"dose: 50.0 mg/kg/injection, schedule: Q04DX002 (ip), vehicle: Klucel (hydroxypropylcellulose) (HPC)",0 of 6
same,survivor count,"dose: 100.0 mg/kg/injection, schedule: Q04DX002 (ip), vehicle: Klucel (hydroxypropylcellulose) (HPC)",0 of 6 and 1 of 6
same,survivor count,[3],0 of 6
same,survivor count,[1],0 of 6
O=c1[nH]c(=O)n(C2CC(O)C(CO)O2)cc1C(F)(F)F (stereo not given),T/C,"dose: 31.25 mg/kg/injection, schedule: Q01DX009 (ip), vehicle: Klucel (hydroxypropylcellulose) (HPC), evaluated on day 20",131 % of control
same,T/C,"dose: 31.25 mg/kg/injection, schedule: Q01DX009 (ip), vehicle: Klucel (hydroxypropylcellulose) (HPC), evaluated on day 30",140 % of control
same,T/C,"dose: 62.5 mg/kg/injection, schedule: Q01DX009 (ip), vehicle: Klucel (hydroxypropylcellulose) (HPC)",130 and 133 % of control
same,T/C,"dose: 125.0 mg/kg/injection, schedule: Q01DX009 (ip), vehicle: Klucel (hydroxypropylcellulose) (HPC)",146 % of control
same,T/C,"dose: 250.0 mg/kg/injection, schedule: Q01DX009 (ip), vehicle: Klucel (hydroxypropylcellulose) (HPC), evaluated on day 20",128 % of control
same,T/C,"dose: 250.0 mg/kg/injection, schedule: Q01DX009 (ip), vehicle: Klucel (hydroxypropylcellulose) (HPC), evaluated on day 30",142 % of control
same,T/C,"dose: 500.0 mg/kg/injection, schedule: Q01DX009 (ip), vehicle: Klucel (hydroxypropylcellulose) (HPC)",132 % of control
same,survivor count,"dose: 1000.0 mg/kg/injection, schedule: Q01DX005 (ip), vehicle: Klucel (hydroxypropylcellulose) (HPC)",6 of 6
CC[C@@]1(O)C(=O)OCc2c1cc1n(c2=O)Cc2cc3cc(O)ccc3nc2-1,T/C,"dose: 0.39 mg/kg/injection, schedule: Q04DX003 (ip), vehicle: other",142 % of control
same,survivor count,"dose: 6.25 mg/kg/injection, schedule: Q04DX003 (ip), vehicle: other",6 of 6
same,survivor count,"dose: 8.0 mg/kg/injection, schedule: Q04DX003 (ip), vehicle: other",3 of 6
same,survivor count,"dose: 12.5 mg/kg/injection, schedule: Q04DX003 (ip), vehicle: other",5 of 6
NC(CNC(=O)CBr)C(=O)O (stereo not given),T/C,"dose: 12.5 mg/kg/injection, schedule: Q01DX005 (ip), vehicle: water","130, 137, 142 % of control"
same,T/C,"dose: 25.0 mg/kg/injection, schedule: Q01DX005 (ip), vehicle: water","135, 141, 148 % of control"
same,T/C,"dose: 50.0 mg/kg/injection, schedule: Q01DX005 (ip), vehicle: water","140, 145, 147 % of control [5 of 6 alive]"
same,survivor count,"dose: 100.0 mg/kg/injection, schedule: Q01DX005 (ip), vehicle: water",2 of 6 and 4 of 6
same,survivor count,"dose: 200.0 mg/kg/injection, schedule: Q01DX005 (ip), vehicle: water",0 of 6
CC(C)OC(=O)Nc1nc2ccc(C(=O)OC(C)C)cc2[nH]1,T/C,"dose: 400.0 mg/kg/injection, schedule: Q04DX003 (ip), vehicle: saline with Tween-80",135 [5 of 6 alive] and 136 % of control [5 of 6 alive]
CC1(C)C(=O)C=CC2(C)C1CC(O)C1(C)C2CCC2(C)C(c3ccoc3)OC(=O)C3OC321 (stereo not given),survivor count,"dose: 24.0 mg/kg/injection, schedule: Q01DX009 (ip), vehicle: Klucel (hydroxypropylcellulose) (HPC)",6 of 6
CCc1nn(CCCN2CCN(c3cccc(Cl)c3)CC2)c(=O)n1CC,survivor count,[4],0 of 6
C#CCNCCCn1c(=O)nc2n(-c3ccccc3)c3ccccc3nc-2c1=O,survivor count,"dose: 200.0 mg/kg/injection, schedule: Q04DX003 (ip), vehicle: Klucel (hydroxypropylcellulose) (HPC)",6 of 6
same,survivor count,"dose: 400.0 mg/kg/injection, schedule: Q04DX003 (ip), vehicle: Klucel (hydroxypropylcellulose) (HPC)",0 of 6
COc1cccc(C(O)c2ccncc2)c1OC (stereo not given),survivor count,"dose: 400.0 mg/kg/injection, schedule: Q01DX009 (ip), vehicle: water",5 of 6
CCCc1c(-c2ccccc2)nc(N)nc1-c1nc(N)nc(-c2ccccc2)c1CCC,survivor count,[5],2 of 6
CCCCCCCCCCCCCC(=O)Oc1ccc[nH]c1=O,survivor count,"dose: 50.0 mg/kg/injection, schedule: Q01DX005 (ip), vehicle: saline with Tween-80",6 of 6
same,survivor count,"dose: 100.0 mg/kg/injection, schedule: Q01DX005 (ip), vehicle: saline with Tween-80",6 of 6
same,survivor count,[6],6 of 6
same,survivor count,[7],6 of 6
Cc1ccc(SSC(=S)Nc2ccccc2)cc1,survivor count,[8],3 of 6
COc1cc2cc(-c3ccccn3)nc(N)c2cc1OC,survivor count,[9],3 of 6
CCN(CC)c1ccc2nc3ccc(=[N+](CC)CC)cc-3oc2c1,survivor count,"dose: 30.0 mg/kg/injection, schedule: Q01DX005 (ip), vehicle: saline",4 of 6
same,survivor count,"dose: 60.0 mg/kg/injection, schedule: Q01DX005 (ip), vehicle: saline",0 of 6
same,survivor count,[5],0 of 6
N#C/C(C(N)=O)=C(\C(=O)c1ccccc1)c1ccccc1,survivor count,[6],1 of 6
C=CC(=NC(C)C)Nc1ccccc1,survivor count,"dose: 12.5 mg/kg/injection, schedule: Q01DX009 (ip), vehicle: saline",1 of 6
same,survivor count,"dose: 25.0 mg/kg/injection, schedule: Q01DX009 (ip), vehicle: saline",0 of 6
same,survivor count,[10],0 of 6
same,survivor count,[11],0 of 6
same,survivor count,[4],0 of 6
CCCCNC1c2ccccc2CCC1O (stereo not given),survivor count,[3],1 of 6
same,survivor count,[12],0 of 6
same,survivor count,[1],0 of 6
Nc1[nH]c(=S)[nH]c(=O)c1N=Cc1ccc(Cl)c(Cl)c1,T/C,[12],128 % of control
O=C1C[C@@H](c2ccccc2)NCCCCN(O)CCCN1,survivor count,[2],0 of 6
O=Cc1cc2ccc3ccccc3c2[nH]1,survivor count,"dose: 100.0 mg/kg/injection, schedule: Q01DX001 (ip), vehicle: saline with Tween-80",6 of 6
same,survivor count,"dose: 400.0 mg/kg/injection, schedule: Q01DX001 (ip), vehicle: saline with Tween-80",5 of 6
OCCCCC12CCC(CCCCO)(CC1)CC2,survivor count,[3],6 of 6
C1=Nc2ccccc2/C1=C/c1c[nH]c2ccccc12,survivor count,[7],1 of 6
CCN(C=Nc1ccc(Cl)cc1C)CC,survivor count,"dose: 200.0 mg/kg/injection, schedule: Q01DX009 (ip), vehicle: Klucel (hydroxypropylcellulose) (HPC)",6 of 6
COC(=O)c1nc(N)nc(C(=O)OC)c1C(=O)c1ccc(Cl)c(Cl)c1,survivor count,[9],0 of 6
CC1CCC(C(C)C)C2(C1)OC(CCl)CS2 (stereo not given),survivor count,"dose: 100.0 mg/kg/injection, schedule: Q01DX009 (ip), vehicle: saline with Tween-80",4 of 6
same,survivor count,[8],3 of 6
CC(/C=C/c1ccc(Cl)c(Cl)c1)=N\NC(N)=S,survivor count,"dose: 120.0 mg/kg/injection, schedule: Q01DX005 (ip), vehicle: saline with Tween-80",0 of 6
same,survivor count,[9],0 of 6
C[C@H]1CC[C@@H]2[C@@H](C)[C@H]3[C@H](C[C@H]4[C@@H]5CC=C6C[C@@H](O)CC[C@]6(C)[C@H]5C[C@H](O)[C@]34C)N2C1,T/C,"dose: 50.0 mg/kg/injection, schedule: Q01DX005 (ip), vehicle: Klucel (hydroxypropylcellulose) (HPC)","88, 98, 102, 109, 118 % of control"
same,T/C,[13],"93, 99, 102, 107 % of control"
same,survivor count,[13],2 of 6
same,T/C,[14],94 and 127 % of control
same,survivor count,[14],0 of 6 and 1 of 6
same,survivor count,"dose: 400.0 mg/kg/injection, schedule: Q01DX005 (ip), vehicle: Klucel (hydroxypropylcellulose) (HPC)",0 of 6
CC(=O)Oc1ccc(OC(C)=O)c2c1C(=O)C=CC2=O,survivor count,[10],1 of 6
same,survivor count,[11],0 of 6
same,survivor count,[4],0 of 6
CC(C)c1ccccc1N1C(=O)CC(Sc2ccccc2N)C1=O (stereo not given),survivor count,[13],5 of 5
